Assay results published in patent US12383535B2, “Hydrogen peroxide-responsive KEAP1-NRF2 ppi inhibitor prodrug, and preparation method therefor” (CHINA PHARMACEUTICAL UNIVERSITY, priority 2019, dated 2025).
For at least one compound, name, drawing or mass did not settle the structure.

Tests used:
[1] = tested on: IL-1β and IL-6 protein in RAW264.7 cells; experiment: Western blot of IL-1β and IL-6 protein levels; format: cell-based, mouse; conditions: same concentration
Experimental: Anti-Nrf2 (ab62352) and anti-IL-1β (ab45692) antibodies were purchased from Abcam Technology (England). Anti-HO-1 (SC-136960) and anti-NQO1 (SC-271116) antibodies were purchased from Santa Cruz Biotechnology (California, USA). Anti-β-Actin (60008-1-Ig) and anti-GCLM (14241-1-AP) antibodies were purchased from Proteintech Group (USA). Cell sampling and western blot were performed as previously reported (M.-C. Lu, J.-A. Ji, Y.-L. Jiang, Z.-Y. Chen, Z.-W. Yuan, Q.-D. You, Z.-Y. Jiang, An inhibitor of the Keap1-Nrf2 protein-protein interaction protects NCM460 colonic cells and alleviates experimental colitis, Sci. Rep., 6 (2016) 26585).

[2] = tested on: IL-1β and IL-6 mRNA in RAW264.7 cells; experiment: Real-time quantitative PCR of IL-1β and IL-6; format: cell-based, mouse; conditions: 20 ng/mL LPS 8 h
C57BL/6 mice = experiment: LPS-induced mouse acute inflammation model; format: in vivo; conditions: LPS 300 μg/kg mice
Experimental: Female C57BL/6 mice (6-8 weeks old, 18-20 g in weight) were acclimatized with drinking water for 2 days, and were randomized to eight groups: (A) control group (n=3); (B) LPS (Sigma-Aldrich, St. Louis, No. L4130) model group (300 μg/kg/day, n=8); (C) LPS (300 μg/kg/day)+pro2 low-dose (10 mg/kg/day) group (n=8); (D) LPS (300 μg/kg/day)+pro2 high-dose (40 mg/kg/day) group (n=8); (E) LPS (300 μg/kg/day)+active parent compound 2 high-dose (40 mg/kg/day) group (n=8); (F) LPS (300 μg/kg/day)+dexamethasone low-dose (10 mg/kg/day) group (n=8); (G) pro2 high-dose (40 mg/kg/day) group (n=3); and (H) active parent compound 2 high-dose (40 mg/kg/day) group (n=3). Animals of groups A, G and H were given IP injections of 500 μL of normal saline each time (on days −3, −2 and −1). All LPS-stimulated mice were IP-injected with 500 μL of LPS (on days −3, −2 and −1), and 4 h after the injection the mice were given corresponding compound treatment (on days −3, −2 and −1). Animals were sacrificed (day 0) 24 h after the last dose of the compound to collect the serum, and the levels of cytokine IL-1β, IL-6, TNF-α and IFN-γ in the serum were determined by ELISA.

Row | Structure (SMILES) | LPS-induced IL-1β and IL-6 protein expression [1] | mRNA transcription of IL-1β and IL-6 [2] | anti-inflammatory effect (serum IL-1β, IL-6, TNF-α, IFN-γ) (C57BL/6 mice; compound high dose 40 mg/kg, oral) | anti-inflammatory effect (serum IL-1β, IL-6, TNF-α, IFN-γ) (C57BL/6 mice; compound 10 mg/kg)
1 | COc1ccc(S(=O)(=O)Nc2ccc(N(CC(=O)O)S(=O)(=O)c3ccc(OC)cc3)c3ccccc23)cc1 [Compound 2, N-(4-((4-methoxyphenyl)sulfonamido)naphthalen-1-yl)-N-((4-methoxyphenyl)sulfonyl)glycine] | mild | inhibit transcription of IL-1β and IL-6 to some extent | moderate anti-inflammatory activity | 
2 | C[C@@H]1C[C@H]2[C@@H]3CCC4=CC(=O)C=C[C@]4(C)[C@@]3(F)[C@@H](O)C[C@]2(C)[C@@]1(O)C(=O)CO [dexamethasone, reference compound] |  |  |  | attenuated inflammatory response
